Reference: PubChem BioAssay AID651640 (Broad Institute, 2012)
About 6,000 (1.7%) of roughly 350,000 compounds were called active. Inconclusive results, whose numbers are uncertain, are shown with a selection of clear calls. Rule as the data show it: active = CPE inhibition above about 20% (passing the limit was not always enough); inconclusive = no clear call, values can overlap the other calls; tested in BHK-21 cells.

Test: protection of cells from dengue 2 killing – plate reader, single concentration, primary screen (AID 651640);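 also: 0% = median of neutral control wells and 100% = median of positive control wells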
Details: DENV2-infected cells, cytopathic effect rescue, at 9.99 µM, hits give high values
With C[C@H]1CN([C@@H](C)CO)C(=O)c2cccc(NS(=O)(=O)c3ccc(Cl)cc3)c2O[C@@H]1CN(C)Cc1ccc(C(=O)Nc2ccccc2N)cc1 the CPE inhibition was active: 21.5%. With O=C(N/N=C/c1cccc([N+](=O)[O-])c1)c1cc(-c2ccc3c(c2)OCO3)n[nH]1 the CPE inhibition was inconclusive: 50.1%. In the case of CCOc1ccc(NS(=O)(=O)c2c(C)nc3sccn3c2=O)cc1, the CPE inhibition is reported as inactive: 15.2%. With O=C(Nc1ccccc1Cl)C1CC(=O)N(Cc2ccco2)C1 (stereo not given) the CPE inhibition was inconclusive: 29.6%. In the case of COc1ccccc1NC(=O)N1C[C@@H](O)COC[C@@H]2O[C@H](CC(=O)NCCc3ccccc3)CC[C@H]21, the CPE inhibition is reported as inactive: 3.92%. In the case of Cc1noc(C)c1S(=O)(=O)Nc1cccc2c1O[C@H](CN(C)S(=O)(=O)c1cn(C)cn1)[C@H](C)CN([C@@H](C)CO)C2=O, the CPE inhibition is reported as inactive: 9.01%. In the case of N#C[C@@H]1[C@@H](c2ccc(-c3ccc(F)cc3)cc2)[C@@H](CO)N1S(=O)(=O)Cc1ccccc1, the CPE inhibition is reported as inactive: 17.3%. For CC(OC(=O)c1ccccc1NCCO)C(=O)NC1CCCCC1C (stereo not given), the CPE inhibition was active: 68.9%. For CN(C)Cc1cn(CC[C@H]2CC[C@@H](NS(=O)(=O)c3ccc(-c4ccccc4)cc3)[C@@H](CO)O2)nn1, the CPE inhibition was inconclusive: 24.1%. For Cc1ccc(S(=O)(=O)Nc2ccc3c(c2)C(=O)N([C@@H](C)CO)C[C@@H](C)[C@@H](CN(C)S(=O)(=O)c2ccc(F)cc2)OCCCC[C@@H](C)O3)cc1, the CPE inhibition was inactive: -3.7%. For O=C(c1ccncc1)N1C[C@H]2[C@@H](c3ccccc31)[C@H](CO)N2C(=O)Nc1ccc(F)cc1, the CPE inhibition was inconclusive: 29%. For O=C(c1ccncc1)N1CC(=O)N2[C@@H](CO)[C@H](c3ccc(-c4ccccc4F)cc3)[C@@H]2C1, the CPE inhibition was inactive: 18%. With C[C@H]1CN([C@@H](C)CO)C(=O)Cc2cc(NS(=O)(=O)c3cccs3)ccc2O[C@@H]1CN(C)Cc1ccc(-c2ccccc2)cc1 the CPE inhibition was inconclusive: 31.1%. For COCC(=O)Nc1ccc2c(c1)C(=O)N(C)C[C@H](OC)[C@H](C)CN(C(=O)COC)[C@H](C)CO2, the CPE inhibition was active: 23.9%. With O=C(C[C@@H]1C=C[C@H](NS(=O)(=O)c2cccc(F)c2)[C@H](CO)O1)N1CCCCC1 the CPE inhibition was inconclusive: 31.1%. With C[C@@H]1CCCCO[C@H](CN(C)C(=O)Nc2ccc(C(F)(F)F)cc2)[C@@H](C)CN([C@@H](C)CO)C(=O)c2cc(NC(=O)Nc3ccc(C(F)(F)F)cc3)ccc2O1 the CPE inhibition was inconclusive: 21.1%. In the case of CCCC(=O)Nc1ccc2c(c1)C(=O)N(C)C[C@@H](OC)[C@H](C)CN(C(=O)c1ccccc1F)[C@@H](C)CO2, the CPE inhibition is reported as active: 43.5%. With COC(=O)C1=C(C)N(Cc2ccco2)C(=O)N[C@@H]1c1ccco1 the CPE inhibition was active: 59.5%. With C[C@H]1CN([C@@H](C)CO)C(=O)c2cc(NS(=O)(=O)c3ccc(Cl)cc3)ccc2O[C@@H]1CN(C)C(=O)Nc1ccccc1 the CPE inhibition was inactive: -1.36%. For Cc1nn(C)cc1S(=O)(=O)Nc1ccc(C(F)(F)F)cc1, the CPE inhibition was inconclusive: 37.6%. With C[C@H](CO)N1C[C@H](C)[C@@H](CN(C)C(=O)c2ccccc2F)Oc2ncc(-c3cccnc3)cc2C1=O the CPE inhibition was inconclusive: 46.5%. In the case of C[C@@H](O)C#Cc1ccc([C@@H]2[C@@H](CO)N3CCCCN(C(=O)Nc4ccccc4)C[C@@H]23)cc1, the CPE inhibition is reported as inconclusive: 27.8%. In the case of C/C(=N\OC(=O)Nc1ccccc1)c1ccc(C)cc1, the CPE inhibition is reported as inconclusive: 25.6%. In the case of Cn1nc(C(=O)NNC(=O)c2ccc(Cl)c(S(N)(=O)=O)c2)c2ccccc2c1=O, the CPE inhibition is reported as inactive: -1.81%. In the case of COc1ccc(C(CC(=O)O)N2Cc3ccccc3C2=O)cc1 (stereo not given), the CPE inhibition is reported as inconclusive: 31.5%. For CCCC(=O)Nc1ccc2c(c1)OC[C@H](C)N(C(=O)c1ccccn1)C[C@@H](C)[C@H](OC)CN(C)C2=O, the CPE inhibition was active: 22.1%. For CCC1(C)Cc2ccccc2-c2nc(NCCCO)[nH]c(=O)c21 (stereo not given), the CPE inhibition was inactive: 5.77%. In the case of CCCCN(C)CCNC(=O)c1cc2cc3ccc(OC)cc3nc2o1, the CPE inhibition is reported as inactive: -2.12%. With COc1ccc(Nc2nc3ccccc3s2)cc1 the CPE inhibition was inconclusive: 80%. For O=C(C[C@@H]1CC[C@@H]2[C@H](COC[C@H](O)CN2S(=O)(=O)c2cccc(Cl)c2)O1)NC1Cc2ccccc2C1, the CPE inhibition was inactive: 11.5%. In the case of CC(C)CC#Cc1cnc2c(c1)C(=O)N([C@H](C)CO)C[C@@H](C)[C@H](CN(C)C(=O)c1ccc3c(c1)OCO3)O2, the CPE inhibition is reported as inactive: -9.69%. For Nc1nc(F)cc(N2CCCCCC2)n1, the CPE inhibition was inconclusive: 23.8%. In the case of Cn1cccc1CN1CCC[C@]2(N[C@H](c3ccccc3)[C@@H]3C(=O)N(Cc4ccccc4)C(=O)[C@@H]32)C1=O, the CPE inhibition is reported as active: 40.7%. For COc1ccccc1/C=C1\N=C(C(C)(C)C)OC1=O, the CPE inhibition was inconclusive: 51.3%. With C[C@H]1CCCCO[C@H](CN(C)C(=O)Nc2cccc3ccccc23)[C@@H](C)CN([C@@H](C)CO)C(=O)c2cc(NS(=O)(=O)c3ccc(F)cc3)ccc2O1 the CPE inhibition was active: 26.1%. In the case of CO[C@H]1CN(C)C(=O)c2cc(NC(=O)C3CC3)ccc2OC[C@@H](C)N(CCC(F)(F)F)C[C@@H]1C, the CPE inhibition is reported as inconclusive: 22.8%. With CCOC(=O)C1=C[C@@H](c2ccccc2)N(S(=O)(=O)c2ccc(C)cc2)[C@H]1c1cccc(Cl)c1 the CPE inhibition was active: 30.1%. In the case of C[C@@H]1CCC[C@]2(O[C@@H](CCO)C[C@H](O)[C@H]2O)O1, the CPE inhibition is reported as inconclusive: 22.1%. In the case of Cc1ccc(-c2cc(=O)c3ccc(F)cc3[nH]2)cc1, the CPE inhibition is reported as active: 25%. For COc1ccc(NC(=O)CSc2nnnn2C2CC2)cc1S(=O)(=O)N1CCOCC1, the CPE inhibition was inconclusive: 21.9%. In the case of CCN(CC)CC(=O)NCC1(c2ccccc2)CCCC1, the CPE inhibition is reported as inconclusive: 22.1%. In the case of O=C(Cc1ccncc1)N[C@@H]1CC[C@@H](CCn2cc(-c3ccccc3F)nn2)O[C@H]1CO, the CPE inhibition is reported as inactive: 4.98%. With Cc1nc2cc(-c3cccc(F)c3)nn2c(C)c1CCC(=O)N1CCN(c2ccccn2)CC1 the CPE inhibition was inconclusive: 25.7%. With CCC(=O)N[C@H]1C=C[C@@H](CC(=O)OC)O[C@H]1CO the CPE inhibition was inconclusive: 26.6%. With CCn1cc(S(=O)(=O)c2ccc(OC)cc2)c(=O)c2cc(F)c(N3CCN(C)CC3)cc21 the CPE inhibition was inconclusive: 25.6%. For O=C1NC(Cc2ccc(O)cc2)c2nc3ccc(Cl)cc3c(=O)n2-c2cc(Cl)ccc21 (stereo not given), the CPE inhibition was inconclusive: 27.2%. For COn1c(-c2ccc(Cl)cc2)nc2ncccc21, the CPE inhibition was inconclusive: 26.6%. For Cc1ccc(CN2CC(=O)N3[C@H]4c5cc(C)ccc5OC[C@@H]4[C@H](c4ccccc4)[C@]3(C)C2=O)cc1, the CPE inhibition was inconclusive: 82.9%. For O=C(CCNC(=O)c1ccc(Cl)cc1)NNC(=O)c1ccc(F)cc1, the CPE inhibition was inconclusive: 41.1%. With CCC(C)(C)C1CCC2(CC1)NC(=O)N(CC(=O)Nc1cc(C(F)(F)F)ccc1N1CCOCC1)C2=O (stereo not given) the CPE inhibition was inconclusive: 34.2%. In the case of CN1C(=O)c2cc(NC(=O)Nc3ccccc3F)ccc2OC[C@H]2O[C@H](CC(=O)NCc3ccc(-c4ccccc4)cc3)CC[C@@H]21, the CPE inhibition is reported as inconclusive: 77.9%. In the case of COc1ccc(S(=O)(=O)N(C)C[C@@H]2Oc3ccc(NC(=O)Nc4ccc5c(c4)OCO5)cc3C(=O)N([C@H](C)CO)C[C@@H]2C)cc1, the CPE inhibition is reported as inactive: -7.11%. In the case of CC(C)(C)c1ccc(Nc2n[nH]c3ccccc23)cc1, the CPE inhibition is reported as active: 65.8%. For Cc1ccc(S(=O)(=O)Nc2cccc3c2O[C@H](CN(C)S(=O)(=O)c2ccc(Cl)cc2)[C@@H](C)CN([C@@H](C)CO)C3=O)cc1, the CPE inhibition was inconclusive: 21.2%. In the case of C/C(=N/NS(=O)(=O)c1ccc(CC(C)C)cc1)c1ccncc1, the CPE inhibition is reported as inactive: -9.45%. With Cc1nc2cc(Br)ccc2c(=O)n1Cc1cccc(O)c1 the CPE inhibition was inactive: 1.21%. For COCC(=O)Nc1ccc2c(c1)C(=O)N(C)C[C@@H](OC)[C@H](C)CN(C(C)=O)[C@@H](C)CO2, the CPE inhibition was active: 32.2%. For CC(=O)Nc1cccc(NC(=O)CSc2nnc(NC(=O)c3ccco3)s2)c1, the CPE inhibition was inconclusive: 29.4%. With COc1ccc(S(=O)(=O)N2CCOC2CNC(=O)C(=O)NCCN2CCOCC2)cc1 (stereo not given) the CPE inhibition was inconclusive: 24.3%. For C=CCNC(=O)COC(=O)COc1ccc(Cl)cc1, the CPE inhibition was inactive: -0.435%. In the case of Cc1ccc(S(=O)(=O)Nc2ccc3c(c2)C(=O)N([C@@H](C)CO)C[C@H](C)[C@H](CN(C)S(C)(=O)=O)O3)cc1, the CPE inhibition is reported as inactive: 1.82%. In the case of CC(C)NC(=O)Nc1ccc2c(c1)CC(=O)N([C@H](C)CO)C[C@@H](C)[C@H](CN(C)C(=O)Nc1cccc3ccccc13)O2, the CPE inhibition is reported as inactive: 5.92%. With COc1ccc(C(=O)NCc2nnc(SCC(=O)NO)n2Cc2ccccc2)cc1 the CPE inhibition was inconclusive: 22.3%. In the case of Cc1cc(C)c(C(=O)OCC(=O)NC(=O)c2ccccc2)c(C)c1, the CPE inhibition is reported as inconclusive: 45.7%. In the case of CCC(C)c1ccc(S(=O)(=O)N2CCN(C(=O)CN3C(=O)NC(C)(C4CC4)C3=O)CC2)cc1 (stereo not given), the CPE inhibition is reported as inconclusive: 20.3%. In the case of C[C@@H]1CCCCO[C@H](CN(C)S(C)(=O)=O)[C@@H](C)CN([C@@H](C)CO)C(=O)c2cc(NC(=O)c3ccncc3)ccc2O1, the CPE inhibition is reported as inconclusive: 78.9%. In the case of COc1ccc(C(=O)OCc2c(-c3cccc(OC)c3)ncc3ccccc23)cc1, the CPE inhibition is reported as active: 21.9%. In the case of C[C@@H]1CN([C@H](C)CO)C(=O)Cc2cc(NC(=O)Nc3cccc4ccccc34)ccc2O[C@H]1CN(C)Cc1ccc(C(=O)O)cc1, the CPE inhibition is reported as inactive: -4.18%. With Cn1c(=O)c2c(nc(Cl)n2CC(=O)NC2(C#N)CCCCC2)n(C)c1=O the CPE inhibition was inconclusive: 63.1%. For Cc1cc(C)c(C(=O)COC(=O)C2CCN(c3ccc(C(F)(F)F)cn3)CC2)c(C)c1, the CPE inhibition was inconclusive: 26.9%.
